In the supplement of paper PMC10849652:
This is one part of the list.

Protein sequences, listed by entry. Tags and fused reporters are not part of them. Lines headed by an entry give the natural chain unless they say otherwise; changes in a name come on top.
UniProt Q9HD40: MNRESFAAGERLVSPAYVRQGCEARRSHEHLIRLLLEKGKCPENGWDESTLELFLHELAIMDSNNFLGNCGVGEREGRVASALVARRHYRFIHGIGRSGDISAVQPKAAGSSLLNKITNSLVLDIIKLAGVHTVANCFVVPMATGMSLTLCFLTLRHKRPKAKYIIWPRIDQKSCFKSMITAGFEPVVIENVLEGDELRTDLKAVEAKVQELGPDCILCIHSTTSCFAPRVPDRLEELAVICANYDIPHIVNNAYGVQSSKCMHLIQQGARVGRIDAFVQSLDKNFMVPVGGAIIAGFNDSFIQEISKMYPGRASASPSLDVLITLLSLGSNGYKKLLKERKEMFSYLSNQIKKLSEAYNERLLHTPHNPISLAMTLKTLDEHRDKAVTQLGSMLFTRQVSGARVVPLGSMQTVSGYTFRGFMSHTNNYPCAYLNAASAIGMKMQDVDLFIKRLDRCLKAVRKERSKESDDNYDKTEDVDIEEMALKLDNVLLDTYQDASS
UniProt Q9NRX5: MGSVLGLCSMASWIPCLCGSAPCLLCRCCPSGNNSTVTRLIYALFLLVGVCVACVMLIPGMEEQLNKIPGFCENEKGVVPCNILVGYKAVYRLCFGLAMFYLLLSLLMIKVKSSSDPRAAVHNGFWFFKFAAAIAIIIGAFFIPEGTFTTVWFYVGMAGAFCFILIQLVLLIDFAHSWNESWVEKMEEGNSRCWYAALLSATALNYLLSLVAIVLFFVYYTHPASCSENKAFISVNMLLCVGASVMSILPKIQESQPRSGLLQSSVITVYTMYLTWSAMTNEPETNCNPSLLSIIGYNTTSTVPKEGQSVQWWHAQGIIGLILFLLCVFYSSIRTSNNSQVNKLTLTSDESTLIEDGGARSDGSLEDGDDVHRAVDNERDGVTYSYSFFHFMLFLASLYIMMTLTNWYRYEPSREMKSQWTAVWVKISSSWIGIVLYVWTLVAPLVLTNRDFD
UniProt Q96ST3: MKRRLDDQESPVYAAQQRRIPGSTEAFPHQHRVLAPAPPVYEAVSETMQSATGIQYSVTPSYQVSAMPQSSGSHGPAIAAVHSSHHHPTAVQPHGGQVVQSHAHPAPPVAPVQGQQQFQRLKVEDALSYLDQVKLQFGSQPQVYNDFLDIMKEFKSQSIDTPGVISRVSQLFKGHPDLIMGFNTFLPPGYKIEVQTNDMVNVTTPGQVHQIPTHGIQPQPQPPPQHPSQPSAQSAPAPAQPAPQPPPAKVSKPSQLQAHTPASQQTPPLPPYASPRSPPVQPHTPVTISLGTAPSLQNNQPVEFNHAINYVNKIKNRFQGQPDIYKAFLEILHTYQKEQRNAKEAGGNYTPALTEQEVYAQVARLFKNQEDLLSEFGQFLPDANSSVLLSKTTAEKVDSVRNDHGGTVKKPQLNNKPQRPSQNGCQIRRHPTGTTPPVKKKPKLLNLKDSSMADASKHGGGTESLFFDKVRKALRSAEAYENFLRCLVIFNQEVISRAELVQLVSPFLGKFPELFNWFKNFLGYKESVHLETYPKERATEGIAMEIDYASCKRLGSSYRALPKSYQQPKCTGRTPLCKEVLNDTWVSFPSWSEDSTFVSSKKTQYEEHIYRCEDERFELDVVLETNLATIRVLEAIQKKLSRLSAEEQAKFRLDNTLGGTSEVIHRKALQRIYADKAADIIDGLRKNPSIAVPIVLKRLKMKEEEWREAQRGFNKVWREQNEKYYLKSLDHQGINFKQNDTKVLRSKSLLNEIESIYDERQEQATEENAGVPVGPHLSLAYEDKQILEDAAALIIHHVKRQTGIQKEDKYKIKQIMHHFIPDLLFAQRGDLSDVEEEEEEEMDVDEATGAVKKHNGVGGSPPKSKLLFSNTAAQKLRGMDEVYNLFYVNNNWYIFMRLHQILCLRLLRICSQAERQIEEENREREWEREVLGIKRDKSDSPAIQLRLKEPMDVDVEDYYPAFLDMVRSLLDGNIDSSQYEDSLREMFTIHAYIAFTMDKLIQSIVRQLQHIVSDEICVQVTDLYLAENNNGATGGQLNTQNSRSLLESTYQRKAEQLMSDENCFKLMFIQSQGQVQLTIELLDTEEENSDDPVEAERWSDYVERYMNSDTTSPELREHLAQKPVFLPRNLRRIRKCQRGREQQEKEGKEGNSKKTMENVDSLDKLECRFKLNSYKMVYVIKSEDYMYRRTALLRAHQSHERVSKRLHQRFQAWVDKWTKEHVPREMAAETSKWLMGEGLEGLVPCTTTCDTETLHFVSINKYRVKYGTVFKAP
UniProt Q9GZR1: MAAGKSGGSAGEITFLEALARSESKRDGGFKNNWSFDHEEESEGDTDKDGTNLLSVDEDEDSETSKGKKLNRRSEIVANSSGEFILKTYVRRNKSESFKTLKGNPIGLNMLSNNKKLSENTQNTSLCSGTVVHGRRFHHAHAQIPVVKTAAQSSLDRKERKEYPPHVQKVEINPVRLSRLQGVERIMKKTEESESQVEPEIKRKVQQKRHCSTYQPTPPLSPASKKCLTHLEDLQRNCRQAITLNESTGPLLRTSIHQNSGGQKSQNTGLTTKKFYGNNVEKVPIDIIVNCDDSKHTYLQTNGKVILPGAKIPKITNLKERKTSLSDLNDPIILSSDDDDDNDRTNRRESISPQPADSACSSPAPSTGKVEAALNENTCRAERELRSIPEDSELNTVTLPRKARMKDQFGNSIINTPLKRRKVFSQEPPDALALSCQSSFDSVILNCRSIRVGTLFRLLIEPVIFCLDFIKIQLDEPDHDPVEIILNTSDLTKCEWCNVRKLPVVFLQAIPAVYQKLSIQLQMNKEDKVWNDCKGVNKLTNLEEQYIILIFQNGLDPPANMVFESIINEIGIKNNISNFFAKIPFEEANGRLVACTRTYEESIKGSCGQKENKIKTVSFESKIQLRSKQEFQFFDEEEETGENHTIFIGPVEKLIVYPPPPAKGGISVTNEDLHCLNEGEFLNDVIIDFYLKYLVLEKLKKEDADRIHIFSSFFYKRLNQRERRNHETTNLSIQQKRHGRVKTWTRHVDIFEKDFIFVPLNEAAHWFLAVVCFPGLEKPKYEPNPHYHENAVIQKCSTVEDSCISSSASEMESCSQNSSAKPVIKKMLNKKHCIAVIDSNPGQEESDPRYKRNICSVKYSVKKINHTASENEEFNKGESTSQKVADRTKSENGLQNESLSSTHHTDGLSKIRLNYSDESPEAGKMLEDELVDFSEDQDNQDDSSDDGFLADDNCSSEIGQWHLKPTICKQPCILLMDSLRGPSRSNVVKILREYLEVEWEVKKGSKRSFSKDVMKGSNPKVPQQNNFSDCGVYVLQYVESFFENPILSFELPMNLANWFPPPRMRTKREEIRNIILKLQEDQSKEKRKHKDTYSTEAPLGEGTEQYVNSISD
UniProt P29353: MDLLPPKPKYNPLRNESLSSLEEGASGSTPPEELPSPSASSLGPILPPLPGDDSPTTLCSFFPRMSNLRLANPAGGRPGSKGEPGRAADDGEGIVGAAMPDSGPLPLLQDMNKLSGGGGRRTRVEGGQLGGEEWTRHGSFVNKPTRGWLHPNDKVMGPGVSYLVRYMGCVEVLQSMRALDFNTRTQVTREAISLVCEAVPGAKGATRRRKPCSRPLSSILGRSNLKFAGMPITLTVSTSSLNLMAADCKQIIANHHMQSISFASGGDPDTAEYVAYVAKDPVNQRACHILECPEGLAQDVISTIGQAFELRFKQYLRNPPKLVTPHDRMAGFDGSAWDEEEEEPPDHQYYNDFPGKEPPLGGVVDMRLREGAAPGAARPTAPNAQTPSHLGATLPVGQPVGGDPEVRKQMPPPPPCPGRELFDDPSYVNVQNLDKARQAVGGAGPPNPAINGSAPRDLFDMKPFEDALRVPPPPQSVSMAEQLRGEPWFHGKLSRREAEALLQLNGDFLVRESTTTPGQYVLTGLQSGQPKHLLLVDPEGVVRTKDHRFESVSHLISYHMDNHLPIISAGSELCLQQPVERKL
UniProt Q68CR1: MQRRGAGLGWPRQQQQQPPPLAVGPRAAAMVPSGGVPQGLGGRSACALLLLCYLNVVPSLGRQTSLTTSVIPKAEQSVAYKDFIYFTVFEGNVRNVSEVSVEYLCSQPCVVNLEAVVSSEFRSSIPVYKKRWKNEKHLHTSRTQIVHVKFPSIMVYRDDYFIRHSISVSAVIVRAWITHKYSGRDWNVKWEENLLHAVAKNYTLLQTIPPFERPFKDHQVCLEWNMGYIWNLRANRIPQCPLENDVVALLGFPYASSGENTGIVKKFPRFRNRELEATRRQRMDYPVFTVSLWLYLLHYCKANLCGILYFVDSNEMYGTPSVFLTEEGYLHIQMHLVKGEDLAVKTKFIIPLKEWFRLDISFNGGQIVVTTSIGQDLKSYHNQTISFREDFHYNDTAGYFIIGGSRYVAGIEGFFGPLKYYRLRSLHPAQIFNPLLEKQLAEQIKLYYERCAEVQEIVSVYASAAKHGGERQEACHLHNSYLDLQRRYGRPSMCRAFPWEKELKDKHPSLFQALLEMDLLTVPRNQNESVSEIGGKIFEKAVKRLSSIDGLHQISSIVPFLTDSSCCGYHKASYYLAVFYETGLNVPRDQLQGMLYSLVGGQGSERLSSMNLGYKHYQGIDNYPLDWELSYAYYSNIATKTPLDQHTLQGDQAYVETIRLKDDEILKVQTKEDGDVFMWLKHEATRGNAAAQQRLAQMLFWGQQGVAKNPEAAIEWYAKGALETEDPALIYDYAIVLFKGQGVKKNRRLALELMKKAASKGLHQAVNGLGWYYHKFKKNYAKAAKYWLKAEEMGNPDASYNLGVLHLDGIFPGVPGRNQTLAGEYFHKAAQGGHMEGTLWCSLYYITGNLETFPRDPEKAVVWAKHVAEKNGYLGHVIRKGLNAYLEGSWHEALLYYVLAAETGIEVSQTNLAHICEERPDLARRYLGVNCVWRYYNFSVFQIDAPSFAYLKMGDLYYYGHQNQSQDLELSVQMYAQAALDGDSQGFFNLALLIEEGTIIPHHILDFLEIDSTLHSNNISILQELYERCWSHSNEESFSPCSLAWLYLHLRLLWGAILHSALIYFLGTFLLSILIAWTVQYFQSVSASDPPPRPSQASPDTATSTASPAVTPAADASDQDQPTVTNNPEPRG
UniProt Q8TD22: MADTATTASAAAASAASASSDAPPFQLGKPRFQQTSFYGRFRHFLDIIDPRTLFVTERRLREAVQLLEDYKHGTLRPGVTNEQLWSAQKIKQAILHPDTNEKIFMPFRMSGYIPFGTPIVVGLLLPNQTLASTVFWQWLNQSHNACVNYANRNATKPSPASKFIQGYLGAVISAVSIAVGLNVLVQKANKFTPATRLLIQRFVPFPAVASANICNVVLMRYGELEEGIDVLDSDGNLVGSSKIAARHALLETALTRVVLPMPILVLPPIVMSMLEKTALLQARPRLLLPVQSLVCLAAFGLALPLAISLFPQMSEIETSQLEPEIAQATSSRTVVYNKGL
UniProt Q99961: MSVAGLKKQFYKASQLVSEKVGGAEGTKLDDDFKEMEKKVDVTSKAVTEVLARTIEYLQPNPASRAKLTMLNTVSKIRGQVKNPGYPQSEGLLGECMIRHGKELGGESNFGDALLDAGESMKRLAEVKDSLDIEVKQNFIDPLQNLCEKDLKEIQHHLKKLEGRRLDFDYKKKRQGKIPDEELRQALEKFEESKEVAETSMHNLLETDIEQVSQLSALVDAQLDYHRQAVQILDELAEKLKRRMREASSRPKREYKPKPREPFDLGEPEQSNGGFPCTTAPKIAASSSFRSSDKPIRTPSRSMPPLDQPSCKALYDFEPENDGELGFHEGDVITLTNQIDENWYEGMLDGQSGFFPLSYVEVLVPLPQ
UniProt Q99719: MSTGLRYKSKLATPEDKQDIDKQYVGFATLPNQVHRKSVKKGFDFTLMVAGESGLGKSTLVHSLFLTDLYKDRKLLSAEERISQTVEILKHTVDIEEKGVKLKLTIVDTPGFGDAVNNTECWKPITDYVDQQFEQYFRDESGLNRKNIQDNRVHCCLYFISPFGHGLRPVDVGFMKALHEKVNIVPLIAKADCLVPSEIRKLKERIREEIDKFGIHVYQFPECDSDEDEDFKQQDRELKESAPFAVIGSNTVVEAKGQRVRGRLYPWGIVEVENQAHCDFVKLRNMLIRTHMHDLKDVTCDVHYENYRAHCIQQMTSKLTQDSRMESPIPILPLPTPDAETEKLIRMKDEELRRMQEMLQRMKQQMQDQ
UniProt Q99720, whole entry, looked up: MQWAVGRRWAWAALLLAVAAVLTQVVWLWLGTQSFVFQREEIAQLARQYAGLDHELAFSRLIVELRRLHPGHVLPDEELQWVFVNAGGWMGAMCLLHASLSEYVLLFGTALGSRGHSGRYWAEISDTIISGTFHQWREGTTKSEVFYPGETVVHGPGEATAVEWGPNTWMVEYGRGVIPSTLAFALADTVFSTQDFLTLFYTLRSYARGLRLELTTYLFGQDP
UniProt O60613, whole entry, looked up: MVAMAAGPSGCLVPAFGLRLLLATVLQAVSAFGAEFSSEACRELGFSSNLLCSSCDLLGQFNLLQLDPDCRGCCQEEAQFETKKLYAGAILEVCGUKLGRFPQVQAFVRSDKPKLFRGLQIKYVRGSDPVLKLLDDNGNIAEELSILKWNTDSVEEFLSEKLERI

compound: C1=CC=C2C(=C1)C3=NNC4=CC=CC(=C43)C2=O; experiment: log2 fold change, soluble protein after heating vs DMSO (PISA); higher = thermal stabilisation; K562 cells, 10 uM, 30 min; active = over 0.2 and 3.5 SD of the protein, either way, in both replicates (recomputed)
Summary of the method: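 Soluble protein was quantified by TMTpro 16plex LC-MS/MS after channel sums were equalised. It was obtained as the supernatant after 21,000xg for 90 min from pooled aliquots of K562 cells (2×10^6 cells/mL, 10 μM compound, 30 min) heated for 3 min across 48°C-58°C and extracted in PBS with 0.5% NP-40 at 4°C. Thermal stability values are relative to control samples and come from duplicates. They are given as log2 fold changes.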

log2 fold change, inactive:
SFXN2 (UniProt Q96NB2) -0.064
SESN2 (UniProt P58004) -0.008
SGPL1 (UniProt O95470) -0.001
SGTA (UniProt O43765) 0.011
SIDT2 isoform 2 (UniProt Q8NBJ9) 0.038
SHOC2 (UniProt Q9UQ13) -0.001
SEPSECS (UniProt Q9HD40) -0.009
SERINC1 (UniProt Q9NRX5) 0.149
SERPINF1 (UniProt P36955) -0.055
SIN3A (UniProt Q96ST3) 0.015
SEH1L isoform 1 (UniProt Q96EE3) -0.06
SETD3 (UniProt Q86TU7) 0.004
SEPTIN9 (UniProt Q9UHD8) 0.081
SEPTIN4 isoform 4 (UniProt O43236) 0.126
SHCBP1 (UniProt Q8NEM2) 0.054
SENP6 (UniProt Q9GZR1) -0.078
SELENOH (UniProt Q8IZQ5) 0.003
SETMAR (UniProt Q53H47) 0.008
SKP1 (UniProt P63208) 0.009
SH3GLB2 (UniProt Q9NR46) -0.021
SEPHS2 (UniProt Q99611) 0.056
SERPINA7 (UniProt P05543) -0.072
SERPINB6, A0A087X1N8 0.009
SHC1 isoform 6 (UniProt P29353) -0.034
SERINC3 (UniProt Q13530) 0.029
SEL1L3 (UniProt Q68CR1) -0.008
SFXN5 (UniProt Q8TD22) -0.001
SH3GL1 (UniProt Q99961) 0.004
SEPTIN5 (UniProt Q99719) 0.015
SIRT2 (UniProt Q8IXJ6) 0.029
SIGMAR1 (UniProt Q99720) -0.068
SELENOF (UniProt O60613) 0.037

Reprinted from the results shown for reference:
log2 fold change, inactive:
SEPHS2 (UniProt Q99611) 0.056
SERPINA7 (UniProt P05543) -0.072
